{"source": "PubChem BioAssay AID1259425 (University of Nebraska Medical Center, 2018)", "purpose": "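Compare each knockdown with KSR1 silencing using changes in marker transcripts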 (primary screen)", "system": "HCT116 human colon cancer cells", "reagents": "siRNA pool against human genes, 50 nM siRNA", "measured": "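mRNA of six signature genes measured together by branched-DNA assay after 50 nM siRNA pool, blank removed, divided by geometric mean of two housekeeping genes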", "direction": "BNIP3L mRNA: higher = more BNIP3L transcript after knockdown", "note": "In all, the deposit lists about 14,000 reagents; below is a random part of them. Further read-outs or replicates are left out here. Not given: the time to read-out."}
{"Target gene":"GNG10","BNIP3L mRNA, set 1":0.0611}
{"Target gene":"KLC3","BNIP3L mRNA, set 1":0.115}
{"Target gene":"IL2RB","BNIP3L mRNA, set 1":0.0707}
{"Target gene":"MFAP1","BNIP3L mRNA, set 1":0.133}
{"Target gene":"WDR83","BNIP3L mRNA, set 1":0.177}
{"Target gene":"SPART","BNIP3L mRNA, set 1":0.186}
{"Target gene":"CNP","BNIP3L mRNA, set 1":0.126}
{"Target gene":"CA7","BNIP3L mRNA, set 1":0.1}
{"Target gene":"TMEM184C","BNIP3L mRNA, set 1":0.0678}
{"Target gene":"MAP2K7","BNIP3L mRNA, set 1":0.151}
{"Target gene":"MCCC2","BNIP3L mRNA, set 1":0.0978}
{"Target gene":"TRAPPC14","BNIP3L mRNA, set 1":0.179}
{"Target gene":"MZT2B","BNIP3L mRNA, set 1":0.169}
{"Target gene":"SGTB","BNIP3L mRNA, set 1":0.105}
{"Target gene":"MOB2","BNIP3L mRNA, set 1":0.113}

Looked up above.
SPART, BNIP3L mRNA, set 1 = 0.186
For “BNIP3L mRNA, set 1”, TMEM184C has 0.0678

Additional entries follow.
{"Target gene":"BTN3A1","BNIP3L mRNA, set 1":0.172}
{"Target gene":"AIM2","BNIP3L mRNA, set 1":0.238}
{"Target gene":"SRGN","BNIP3L mRNA, set 1":0.506}
{"Target gene":"NCR3","BNIP3L mRNA, set 1":0.0611}
{"Target gene":"ABCA2","BNIP3L mRNA, set 1":0.12}
{"Target gene":"CHST6","BNIP3L mRNA, set 1":0.0815}
{"Target gene":"SUPT5H","BNIP3L mRNA, set 1":0.184}
{"Target gene":"AKAP6","BNIP3L mRNA, set 1":0.17}
{"Target gene":"NASP","BNIP3L mRNA, set 1":0.155}
{"Target gene":"ATG5","BNIP3L mRNA, set 1":0.0972}
{"Target gene":"GPR15","BNIP3L mRNA, set 1":0.4}
{"Target gene":"UTY","BNIP3L mRNA, set 1":0.226}
{"Target gene":"PRKDC","BNIP3L mRNA, set 1":0.0913}
